Results on one molecule are retold here after paper PMC6907854.

By UniProt entry, the sequences of proteins in these tests, tags left out.
UniProt P25454: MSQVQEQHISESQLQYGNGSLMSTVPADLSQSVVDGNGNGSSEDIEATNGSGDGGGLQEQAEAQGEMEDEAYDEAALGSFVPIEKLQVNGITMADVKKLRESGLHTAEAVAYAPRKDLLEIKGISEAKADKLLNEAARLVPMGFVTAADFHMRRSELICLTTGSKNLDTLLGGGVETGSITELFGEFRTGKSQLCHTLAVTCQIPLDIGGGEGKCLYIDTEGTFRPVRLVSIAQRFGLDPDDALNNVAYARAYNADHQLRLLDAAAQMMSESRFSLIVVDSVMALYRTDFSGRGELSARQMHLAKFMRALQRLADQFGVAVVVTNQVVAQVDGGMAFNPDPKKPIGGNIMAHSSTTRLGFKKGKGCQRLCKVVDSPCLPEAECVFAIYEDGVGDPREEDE

Results are given in words; binding and its absence hold for the method and conditions named. Some results given as binding are weak or reduced against the parent protein; the word gives no strength.

In test [1] the target is Rad51 (S. cerevisiae) (UniProt P25454). Kind of test: two-hybrid; meiotic two-hybrid in SK-1 diploids; lexA DNA-binding domain fusions and Gal4 activation domain fusions with a lex-op::lacZ reporter; β-galactosidase assays 6 h and 18 h after induction of sporulation; done in MEI5+ and mei5 backgrounds (equivalent Rad51-Dmc1 signal in both).
Test [2] addresses Dmc1 (S. cerevisiae) (UniProt P25453). Described as above.

B1: Dmc1 (protein, UniProt P25453 1-334)
chain: MSVTGTEIDSDTAKNILSVDELQNYGINASDLQKLKSGGIYTVNTVLSTTRRHLCKIKGLSEVKVEKIKEAAGKIIQVGFIPATVQLDIRQRVYSLSTGSKQLDSILGGGIMTMSITEVFGEFRCGKTQMSHTLCVTTQLPREMGGGEGKVAYIDTEGTFRPERIKQIAEGYELDPESCLANVSYARALNSEHQMELVEQLGEELSSGDYRLIVVDSIMANFRVDYCGRGELSERQQKLNQHLFKLNRLAEEFNVAVFLTNQVQSDPGASALFASADGRKPIGGHVLAHASATRILLRKGRGDERVAKLQDSPDMPEKECVYVIGEKGITDSSD
For B1, the binding entry was “binds weakly” in test [1] and “binds” in test [2].
